These are yes or no findings as the source states them, for the method shown. Some results given as binding are weak or reduced against the parent protein; the word gives no strength.

The assay has as its target netrin-1 (endogenous, from human HepaRG cells and primary human hepatocytes) (human) (UniProt O95631). The experiment in a line: immunoprecipitation with NP137 on Protein A magnetic beads, then Western blot; endogenous netrin-1 of primary human hepatocytes. (Immunoblotting shows a protein as a band on a membrane.)

B1: NP137 humanized anti-netrin-1 antibody (antibody, V domains shown)
VH: QVQLQQSGPGLVKPSQTLSLTCAISGYTFTSYNMHWVRQATGQGLEWMGAIYPGNGDTSYNQKFKGRLTISKDTSKNQVVLTMTNMDPVDTATYYCARGGTGFAYWGQG
VL: DIQMTQSPSSLSASVGDRVTITCKASQSVSNDVAWYQQKPGQAPRLLIYYASNRYTGIPPRFSGSGYGTDFTLTINNIESEDAAYYFCQQDYSSPWTFGQG
In the case of B1, the binding result is “binds”.

Values taken from patent US20230303676A1.
